{
  "source": "patent US20070098636A1",
  "about": "“Method of identifying responders to treatment with insulin sensitizers” (priority 2003, published 2007)",
  "key": {"diabetic patients": {"tested_on": "diabetic patients", "details": "diabetic patients to whom it is administered; cited from earlier work"}, "non-diabetic human males": {"tested_on": "non-diabetic human males", "assay": "Human Clinical Study A: plasma adiponectin and adiponectin complexes pre- and post-treatment", "format": "in vivo", "details": "4 mg bid for 14 days", "experimental": "(§1) Velocity sedimentation/gel filtration chromatography for separation of adiponectin complexes—5-20% sucrose gradients in 10 mM HEPES pH 8, 125 mM NaCl were poured stepwise (5%, 10%, 15%, 20%) in 2-ml thin-walled ultracentrifuge tubes (Becton Dickinson) and allowed to equilibrate overnight at 4° C. Following layering of the sample on top (diluted 1:10 with 10 mM HEPES pH 8, 125 mM NaCl in the case of serum), the gradients were spun at 55,000 RPM for four hours at 4° C. in a TLS55 rotor in a Beckman TL-100 tabletop ultracentrifuge. 150 μL gradient fractions were sequentially retrieved from the top of the gradient and analyzed by quantitative Western blot analysis.\n(§2) Immunoblotting—Separation of proteins by SDS-PAGE, fluorography, and immunoblotting were performed as described previously (20). Primary and secondary antibodies were diluted in TBS with 0.05% Tween-20 and 1% BSA. Horseradish peroxidase conjugated secondary antibodies were detected with enhanced chemiluminescence according to the manufacturer's instructions (Pierce). For quantitative Western blotting, proteins were transferred to BA83 nitrocellulose (Schleicher & Schuell) after SDS-PAGE. […] Blots were analyzed with a Phosphoimager (Molecular Dynamics) and fractions 4-6 and 9-11 from velocity sedimentation (LMW and […] adiponectin, respectively) were quantitated with Imagequant Software. […]"}, "db/db mice": {"tested_on": "db/db mice", "assay": "Adiponectin complex distribution in serum of treated db/db mice (velocity sedimentation, quantitative Western blot)", "format": "in vivo, mouse", "details": "male db/db mice, 10 mg/kg-day by gavage, 11 days", "experimental": "as §1, §2"}},
  "note": "At least one structure is not confirmed: it was looked up by name or label, or the drawing left a doubt. Some entries share one result that the patent states for a list of compounds.",
  "data": [
    {"smiles": "CCc1ccc(CCOc2ccc(CC3SC(=O)NC3=O)cc2)nc1", "note": "(stereo not shown) [Pioglitazone]", "values": [
      {"measurement": "share of diabetic patients in whom insulin resistance is reduced", "setting": "diabetic patients", "result": "50-70%"}
    ]},
    {"smiles": "CN(CCOc1ccc(CC2SC(=O)NC2=O)cc1)c1ccccn1", "note": "(stereo not shown) [rosiglitazone]", "values": [
      {"measurement": "HMW/total adiponectin ratio post-treatment relative to pre-treatment value", "setting": "non-diabetic human males", "result": "about double"},
      {"measurement": "share of diabetic patients in whom insulin resistance is reduced", "setting": "diabetic patients", "result": "50-70%"},
      {"measurement": "change in percentage of adiponectin in HMW form versus prior to treatment", "setting": "db/db mice", "result": "nearly doubled"}
    ]}
  ]
}
